Data on one molecule can be found in PMC3857619.

The chains behind the UniProt entries cited, without tags or fusion partners.
UniProt P26599: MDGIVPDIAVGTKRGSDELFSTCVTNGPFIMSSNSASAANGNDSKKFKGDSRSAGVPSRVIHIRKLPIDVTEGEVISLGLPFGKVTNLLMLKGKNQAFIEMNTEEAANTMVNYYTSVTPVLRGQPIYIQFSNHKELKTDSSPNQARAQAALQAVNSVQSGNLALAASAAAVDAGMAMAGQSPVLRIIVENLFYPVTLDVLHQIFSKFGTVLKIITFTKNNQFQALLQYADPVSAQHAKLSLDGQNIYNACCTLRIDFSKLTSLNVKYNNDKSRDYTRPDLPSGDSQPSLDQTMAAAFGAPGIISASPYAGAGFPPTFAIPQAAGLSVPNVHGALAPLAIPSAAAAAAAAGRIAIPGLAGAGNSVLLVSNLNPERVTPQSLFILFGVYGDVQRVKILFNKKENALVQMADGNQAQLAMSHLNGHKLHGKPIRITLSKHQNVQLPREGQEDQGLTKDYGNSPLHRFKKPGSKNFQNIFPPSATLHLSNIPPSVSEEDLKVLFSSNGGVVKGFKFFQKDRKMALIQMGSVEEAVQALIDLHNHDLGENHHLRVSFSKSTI

This test deals with polypyrimidine tract-binding protein (human (endogenous in MCF7 and HeLa)) (UniProt P26599). In words: affinity purification with mass spectrometry; anti-PTB immunoprecipitation from nuclear and cytoplasmic lysates of MCF7 cells, mock or TRAIL for 3 h; SDS-PAGE, LC-MS/MS; three independent occasions.

No constants are given. Whether binding was seen depends on the method and setting. In cells and extracts the contact can be indirect. These calls come from enrichment with a bait or labelling near it, and not all partners need be listed.

B1: DDX1 (protein, UniProt Q92499 1-740)
chain: MAAFSEMGVMPEIAQAVEEMDWLLPTDIQAESIPLILGGGDVLMAAETGSGKTGAFSIPVIQIVYETLKDQQEGKKGKTTIKTGASVLNKWQMNPYDRGSAFAIGSDGLCCQSREVKEWHGCRATKGLMKGKHYYEVSCHDQGLCRVGWSTMQASLDLGTDKFGFGFGGTGKKSHNKQFDNYGEEFTMHDTIGCYLDIDKGHVKFSKNGKDLGLAFEIPPHMKNQALFPACVLKNAELKFNFGEEEFKFPPKDGFVALSKAPDGYIVKSQHSGNAQVTQTKFLPNAPKALIVEPSRELAEQTLNNIKQFKKYIDNPKLRELLIIGGVAARDQLSVLENGVDIVVGTPGRLDDLVSTGKLNLSQVRFLVLDEADGLLSQGYSDFINRMHNQIPQVTSDGKRLQVIVCSATLHSFDVKKLSEKIMHFPTWVDLKGEDSVPDTVHHVVVPVNPKTDRLWERLGKSHIRTDDVHAKDNTRPGANSPEMWSEAIKILKGEYAVRAIKEHKMDQAIIFCRTKIDCDNLEQYFIQQGGGPDKKGHQFSCVCLHGDRKPHERKQNLERFKKGDVRFLICTDVAARGIDIHGVPYVINVTLPDEKQNYVHRIGRVGRAERMGLAISLVATEKEKVWYHVCSSRGKGCYNTRLKEDGGCTIWYNEMQLLSEIEEHLNCTISQVEPDIKVPVDEFDGKVTYGQKRAAGGGSYKGHVDILAPTVQELAALEKEAQTSFLHLGYLPNQLFRTF
On to B1, for which the binding result is on record as “binds”.
